Earlier results as cited in patent US12427126B2, “Niclosamide formulations and methods of use” (Florida State University Research Foundation, Inc., priority 2020, dated 2025).
The name of at least one read-out is uncertain.

Compound: O=C(Nc1ccc([N+](=O)[O-])cc1Cl)c1cc(Cl)ccc1O [Niclosamide]
- permeability: low permeability
